No constants are given. Whether binding was seen depends on the method and setting. In cells and extracts the contact can be indirect. Some binding calls cover weakened binding; strength is not graded here.
Key:
recombinant Gal-3-V5 = recombinant Gal-3-V5 (UniProt P17931); test: co-IP; HT1080 cells in media lacking FBS, 0.5 micromolar rGal-3-V5 with or without 1% GCS-100/MCP for 24 h; lysates immunoprecipitated with V5 antibody, blotted for P-gp; only the target purified
[1] = target: P-glycoprotein (human (endogenous in HT1080)) (UniProt P08183); test: co-IP; HT1080 cells in media lacking FBS, 0.5 micromolar rGal-3-V5 with or without 1% GCS-100/MCP for 24 h; lysates immunoprecipitated with P-gp antibody, blotted for V5; only the binder purified

Amino acid sequences for entries named in this document (tags omitted).
UniProt P17931: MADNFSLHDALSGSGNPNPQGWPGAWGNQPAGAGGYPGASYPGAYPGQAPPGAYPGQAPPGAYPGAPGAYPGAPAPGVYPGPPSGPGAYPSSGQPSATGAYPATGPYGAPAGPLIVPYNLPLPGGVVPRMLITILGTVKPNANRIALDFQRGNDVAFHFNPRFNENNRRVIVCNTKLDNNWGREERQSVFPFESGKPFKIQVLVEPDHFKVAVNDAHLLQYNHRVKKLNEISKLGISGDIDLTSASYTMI
UniProt P08183: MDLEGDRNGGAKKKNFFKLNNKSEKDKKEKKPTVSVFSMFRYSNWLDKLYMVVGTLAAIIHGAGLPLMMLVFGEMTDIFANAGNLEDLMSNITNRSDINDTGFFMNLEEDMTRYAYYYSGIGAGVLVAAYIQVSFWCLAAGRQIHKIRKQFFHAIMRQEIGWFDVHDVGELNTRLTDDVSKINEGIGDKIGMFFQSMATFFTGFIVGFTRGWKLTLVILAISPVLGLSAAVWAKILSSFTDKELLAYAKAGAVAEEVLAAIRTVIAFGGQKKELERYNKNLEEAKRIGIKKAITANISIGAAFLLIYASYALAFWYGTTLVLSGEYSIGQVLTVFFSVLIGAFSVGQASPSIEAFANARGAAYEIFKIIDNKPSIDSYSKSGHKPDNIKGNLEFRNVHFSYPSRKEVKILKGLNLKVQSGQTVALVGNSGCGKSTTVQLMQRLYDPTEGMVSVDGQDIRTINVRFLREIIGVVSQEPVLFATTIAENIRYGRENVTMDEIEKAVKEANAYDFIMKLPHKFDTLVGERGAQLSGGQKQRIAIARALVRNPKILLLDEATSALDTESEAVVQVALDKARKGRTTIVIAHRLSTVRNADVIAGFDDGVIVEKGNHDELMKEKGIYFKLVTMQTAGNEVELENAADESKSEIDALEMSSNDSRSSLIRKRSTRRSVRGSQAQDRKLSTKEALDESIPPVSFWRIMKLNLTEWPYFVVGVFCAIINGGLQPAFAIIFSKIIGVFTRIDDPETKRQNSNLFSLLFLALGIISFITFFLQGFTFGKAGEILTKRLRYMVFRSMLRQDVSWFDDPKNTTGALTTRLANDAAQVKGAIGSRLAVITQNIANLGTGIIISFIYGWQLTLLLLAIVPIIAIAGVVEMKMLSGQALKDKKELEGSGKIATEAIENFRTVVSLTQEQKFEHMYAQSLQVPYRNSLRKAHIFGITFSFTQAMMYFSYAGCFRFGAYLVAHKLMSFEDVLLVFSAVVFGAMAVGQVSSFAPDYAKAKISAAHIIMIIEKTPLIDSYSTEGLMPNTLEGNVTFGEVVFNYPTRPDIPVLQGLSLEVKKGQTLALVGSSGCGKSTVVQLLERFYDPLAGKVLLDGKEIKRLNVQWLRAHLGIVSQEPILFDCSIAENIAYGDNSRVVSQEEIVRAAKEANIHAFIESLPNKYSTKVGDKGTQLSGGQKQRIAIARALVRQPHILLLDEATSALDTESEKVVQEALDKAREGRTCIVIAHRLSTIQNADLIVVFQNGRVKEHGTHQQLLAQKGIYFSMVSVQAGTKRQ

Row | binding (recombinant Gal-3-V5) | binding [1] | Substance
1 | binds |  | P-glycoprotein (from UniProt P08183 1-1280)
2 |  | binds | recombinant Gal-3-V5 (from UniProt P17931 1-250)

— publication PMC4637307
